{"source": "PubChem BioAssay AID504791 (Drosophila RNAi Screening Center, 2011)", "assay": "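Factors in Argonaute-based small RNA production and activity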 (primary screen)", "system": "Drosophila S2-derived reporter cells", "knock-down reagent": "long dsRNA against Drosophila genes, about 150-250 ng dsRNA per well (siRNA assay); about 80-120 ng (miRNA assay)", "time to read-out": "about 5 days (siRNA assay); about 4 days (miRNA assay)", "challenge": "copper sulfate induction of reporters: 25 µM (siRNA assay); 200 mM stated (miRNA assay), 1-2 days before reading", "measurement": "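Dual luciferase assay: Renilla to firefly signal ratio in each well, scaled to the mean ratio of its plate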", "units": "stable assay Renilla, run 1 in luminescence; stable assay firefly, run 1 in luminescence", "active means": "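First-pass picks had plate-scaled ratios over 1.5 for the siRNA assay, over 1.6 for the miRNA assay, or under 0.6; two distinct dsRNAs had to score alike on retest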", "note": "The deposit covers about 23,000 reagents; below is a random part of those that have a named target and a result. In the full data, 199 (0.86%) were called active. 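Plate-scaled ratios behind the calls are not deposited; printed light signals are raw; many rows marked increased or decreased are still called inactive.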 Entries without a mark were called inactive. Not stated in the record: the direction of the score."}
{"gene": "CG9147", "stable assay Renilla, run 1": 7455, "stable assay firefly, run 1": 3.32e5}
{"gene": "Lcp9 (Larval cuticle protein 9)", "stable assay Renilla, run 1": 7374, "stable assay firefly, run 1": 4.65e5}
{"gene": "CG8851", "stable assay Renilla, run 1": 7743, "stable assay firefly, run 1": 3.70e5}
{"gene": "CG6277", "stable assay Renilla, run 1": 6916, "stable assay firefly, run 1": 4.11e5}
{"gene": "Lsp1gamma (Larval serum protein 1 gamma)", "stable assay Renilla, run 1": 11298, "stable assay firefly, run 1": 4.37e5}
{"gene": "RpL27 (Ribosomal protein L27)", "stable assay Renilla, run 1": 7467, "stable assay firefly, run 1": 2.84e5}
{"gene": "gzl (godzilla E3 ubiquitin protein ligase)", "stable siRNA reporter change": "reporter ratio lowered past the hit cutoff", "stable assay Renilla, run 1": 3796, "stable assay firefly, run 1": 3.37e5}
{"gene": "Gfat2 (Glutamine:fructose-6-phosphate aminotransferase 2)", "stable assay Renilla, run 1": 7978, "stable assay firefly, run 1": 4.13e5}
{"gene": "TTLL6B (Tubulin tyrosine ligase-like 6B)", "stable assay Renilla, run 1": 5696, "stable assay firefly, run 1": 3.15e5}
{"gene": "Or22a (Odorant receptor 22a)", "stable assay Renilla, run 1": 7047, "stable assay firefly, run 1": 4.48e5}
{"gene": "Nepl19 (Neprilysin-like 19)", "stable assay Renilla, run 1": 3515, "stable assay firefly, run 1": 3.69e5}
{"gene": "CG34183", "stable assay Renilla, run 1": 5375, "stable assay firefly, run 1": 4.58e5}

Individual results from above.
Lcp9 (Larval cuticle protein 9), stable assay firefly, run 1 → 4.65e5
Under “stable assay firefly, run 1”, TTLL6B (Tubulin tyrosine ligase-like 6B) is entered as 3.15e5
